# Experimental data taken from PubChem BioAssay AID540256 (National Center for Advancing Translational Sciences (NCATS), 2011).
# Screen size: about 300,000 compounds; about 3,700 (1.2%) were called active. The inconclusive results got no clear call from the source; some entries with a clear call stand among them for comparison. The call rests on the fitted dose curve; tested in HEK293 cells. A potency beside an inconclusive call is a rough fit, not a confirmed value.
# Test: qHTS for Inhibitors of binding or entry into cells for Lassa Virus; further: nearly all actives have a fitted effect of over 50% in size
# Conditions: Lassa virus pseudotype entry inhibition, cell reporter; activity change, negative = inhibition: at 37.9 µM (top of the series) unless noted
# On the % scale 0 is the no-effect control and ±100 the full control effect; potency means the concentration at half of the fitted maximal effect.
Compound,Potency,"activity change, negative = inhibition"
CCOc1ccc(NS(=O)(=O)c2ccc(NC(=S)NC(C)=O)cc2)cc1,"inconclusive: 3.16 µM [inhibitor, partial curve, poor fit]",
N#Cc1c(SCc2cccc(Cl)c2)sc(C(=O)c2ccccc2)c1N,"inconclusive: 11.2 µM [inhibitor, partial curve]",
N#C/C(=C\c1cn(-c2ccccc2)nc1-c1cc2ccccc2o1)c1nc2ccccc2[nH]1,"inconclusive: 20.6 µM [activator, partial curve, poor fit]",
COc1ccc2[nH]c(C(=O)NCc3ccccc3)cc2c1,"inconclusive: 1.41 µM [inhibitor, full curve, poor fit]",
CCOc1ccc2c(c1)-c1c(ssc1=S)C(C)(C)N2C(=O)CSC1=NCCS1,"inconclusive: 28.2 µM [inhibitor, partial curve, poor fit]",
COc1cc(-c2nnc(SCCOc3ccc(Cl)cc3C)o2)cc(OC)c1OC,,inactive: -3.38% [at 46.1 µM]
CC(C)[C@H](NS(=O)(=O)c1ccccc1)C(=O)OCC(=O)N1N=C(c2ccc(Cl)cc2)CC1c1ccco1 (stereo not given in full),"inconclusive: 11.2 µM [inhibitor, partial curve, poor fit]",
C1=C2C[N+]3(CCCC3)CC2Cc2ccc3ccccc3c21 (stereo not given),,inactive: 0.002%
O=C(Nc1ccc(NC(=O)c2ccco2)nc1)c1cccc(F)c1,active: 10 µM,
CC(=O)NC1=C(Nc2ccc(N(C)C)cc2)C(=O)c2ccccc2C1=O,active: 1.58 µM,
COc1ccc(C(=O)C(OC(=O)c2ccccc2)c2ccccc2)cc1 (stereo not given),"inconclusive: 2.82 µM [activator, partial curve]",
Cc1cc(C)cc(NC(=S)NC2CC3CCCC(C2)N3Cc2cccs2)c1 (stereo not given),"inconclusive: 29.1 µM [inhibitor, single point]",
Cc1nn2c(c1-c1ccccc1)N=C(c1ccco1)CC2c1ccccc1 (stereo not given),"inconclusive: 18.3 µM [inhibitor, partial curve, poor fit]",
Cc1cccc(-n2c(C)cc(C(=S)N3CCOCC3)c2C)c1C,"inconclusive: 35.5 µM [inhibitor, single point]",
COCCN(CCOC)C(=O)c1cc2c(=O)n3ccccc3nc2s1,,inactive: 1.21%
CCOc1ccc(-c2nc(CSCC(=O)N3CCN(c4cccc(C(F)(F)F)c4)CC3)c(C)o2)cc1,"inconclusive: 35.5 µM [inhibitor, partial curve, poor fit]",
O=C1CN(C(=O)CSc2nncn2-c2ccccc2)c2ccccc2N1,"inconclusive: 0.164 µM [inhibitor, full curve, poor fit]",
CCN(CC)C(=O)c1sc(NC(=O)c2ccc(C)c([N+](=O)[O-])c2)c(C#N)c1C,"inconclusive: 0.224 µM [inhibitor, full curve, poor fit]",
O=C(CSc1ncc(S(=O)(=O)c2ccc(Br)cc2)c(=O)[nH]1)NCc1ccc(Cl)cc1,,inactive: 6.8% [at 46.1 µM]
Cc1nc(C(F)(F)F)ccc1C(=O)Nc1ccc(C(F)(F)F)cn1,,inactive: 14.1% [at 46.1 µM]
CC1(C)NC(=O)N(CCCCOc2ccc(Br)cc2Cl)C1=O,"inconclusive: 32.6 µM [inhibitor, single point]",
COc1ccc(OC)c(C(=O)CSc2nnc(Cc3cccs3)n2CCc2ccccc2)c1,"inconclusive: 3.66 µM [inhibitor, partial curve]",

# 4 of the compounds above, bar-delimited:
Compound | Potency | activity change, negative = inhibition
CCOc1ccc(NS(=O)(=O)c2ccc(NC(=S)NC(C)=O)cc2)cc1 | inconclusive: 3.16 µM [inhibitor, partial curve, poor fit] | 
N#Cc1c(SCc2cccc(Cl)c2)sc(C(=O)c2ccccc2)c1N | inconclusive: 11.2 µM [inhibitor, partial curve] | 
N#C/C(=C\c1cn(-c2ccccc2)nc1-c1cc2ccccc2o1)c1nc2ccccc2[nH]1 | inconclusive: 20.6 µM [activator, partial curve, poor fit] | 
COc1ccc2[nH]c(C(=O)NCc3ccccc3)cc2c1 | inconclusive: 1.41 µM [inhibitor, full curve, poor fit] | 

# (continued)

Compound,Potency,"activity change, negative = inhibition"
COc1ccccc1CN(C)CC(=O)Nc1cccc(S(=O)(=O)N2CCCC2)c1,"inconclusive: 35.5 µM [inhibitor, single point]",
Cc1[nH]n(-c2ccccc2)c(=O)c1C(=O)c1ccc(Cl)cc1,"inconclusive: 35.5 µM [inhibitor, single point]",
Cc1cccc(OCC(=O)Nc2c(C)ccc3nsnc23)c1C,"inconclusive: 3.55 µM [inhibitor, single point]",
CCN(CC)CCN1C(=O)/C(=C\c2ccc(Cl)c([N+](=O)[O-])c2)SC1=Nc1ccc(OC)cc1,"inconclusive: 35.5 µM [inhibitor, single point]",
CCn1c(=O)oc2cc(NC(=O)CCl)ccc21,"inconclusive: 11.2 µM [inhibitor, partial curve, poor fit]",
COc1ccc2c(c1)O[C@@H](c1ccc3c(c1)OCO3)[C@H](OC(=O)Nc1ccc(OC(F)F)cc1)C2=O,"inconclusive: 0.531 µM [activator, partial curve, poor fit]",
CCOc1ccc(OCC)c(NC(=O)CN2CCN(c3cccc(C)c3)C(C)C2)c1 (stereo not given),"inconclusive: 11.2 µM [inhibitor, partial curve]",
COc1ccccc1CNS(=O)(=O)c1cc(C(=O)Nc2cccc(C(F)(F)F)c2)ccc1F,"inconclusive: 35.5 µM [inhibitor, single point]",
C=CCNCCCCOc1ccc(Br)cc1C,,inactive: -0.375%
CC(C)(C)c1ccc(C(=O)N/C(N)=N/c2nc3ccccc3o2)cc1,"inconclusive: 1.26 µM [inhibitor, single point]",
O=C(COC(=O)CNC(=O)c1ccc([N+](=O)[O-])o1)Nc1ncc(Cl)cc1Cl,"inconclusive: 35.5 µM [inhibitor, single point]",
CC1=C/C(=N\NC(=O)c2ccccc2)CC1,"inconclusive: 16.4 µM [activator, partial curve, poor fit]",
Cc1c(CC(=O)NCCc2ccccc2F)c(=O)oc2c(C)c3occ(C(C)(C)C)c3cc12,,inactive: -2.51% [at 46.1 µM]
CCc1nnc(NS(=O)(=O)c2ccc(NC(=O)c3cc(Cl)ccc3Cl)cc2)s1,"inconclusive: 0.562 µM [activator, full curve, poor fit]",
Cc1ccc(C)c(CSc2nc3ncccc3[nH]2)c1,,inactive: 7.33% [at 46.1 µM]
CCc1cc2cc3c(cc2nc1SCC(=O)Nc1nccs1)OCO3,"inconclusive: 13 µM [inhibitor, partial curve, poor fit]",
CNC(=S)N1CCc2cc(OC)c(OC)cc2C1COc1ccc(F)cc1 (stereo not given),"inconclusive: 10 µM [inhibitor, partial curve, poor fit]",
CC1(C)CC(=O)C(C2C3=C(CC(C)(C)CC3=O)Oc3ccccc32)=C(O)C1 (stereo not given),,inactive: 11.9%
COc1ccccc1NS(=O)(=O)c1cccc(C(=O)NCC(c2ccc(F)cc2)N2CCOCC2)c1 (stereo not given),,inactive: 4.93%
CCCNS(=O)(=O)c1ccc(CCC(=O)Nc2cc(Cl)ccc2Oc2ccccc2)cc1,"inconclusive: 15.8 µM [inhibitor, single point]",
CCOC(=O)c1ccc(Nc2cc(C)nc(C)c2C(=O)OCC)cc1,,inactive: 0.605%
Cc1ccc(-c2n[nH]c(=S)c3ccccc23)cc1S(=O)(=O)NCC1CCCO1 (stereo not given),,inactive: 8.96% [at 46.1 µM]

Compound,Potency,"activity change, negative = inhibition"
O=C(CSc1n[nH]c(=O)n1C1CC1)Nc1cc(Cl)ccc1Oc1ccccc1,"inconclusive: 20.6 µM [inhibitor, partial curve, poor fit]",
COc1ccc2[nH]c(=O)c(CN(Cc3cccnc3)S(=O)(=O)c3ccccc3F)cc2c1,"inconclusive: 0.562 µM [inhibitor, full curve, poor fit]",
Cc1nc(C)c(-c2csc(Nc3ccc(F)cc3)n2)s1,"inconclusive: 12.6 µM [inhibitor, partial curve, poor fit]",
O=[N+]([O-])c1ccc(-c2nc(-c3ccncc3)no2)cc1,"inconclusive: 35.5 µM [activator, partial curve, poor fit]",
Cc1cccc(N2C(=O)CSC23C(=O)N(Cc2cccc(F)c2)c2ccccc23)c1 (stereo not given),"inconclusive: 35.5 µM [inhibitor, single point]",
COc1ccc(N2CCN(C(=O)CN(c3cccc(OC)c3)S(=O)(=O)c3ccccc3)CC2)cc1,"inconclusive: 14.1 µM [inhibitor, single point]",
COc1ccc(C(=O)OCC(=O)NC(C)CCc2ccccc2)cc1 (stereo not given),,inactive: -4.98%
Cc1cc2cc(CCNC(=O)C(=O)c3c[nH]c4ccccc34)c(=O)[nH]c2cc1C,active: 12.6 µM,
Cc1nc(N2C(=O)c3oc4ccccc4c(=O)c3C2c2ccccc2F)sc1C (stereo not given),"inconclusive: 35.5 µM [activator, single point]",
CCc1cccc(C)c1NC(=O)C1CCCN1C(=O)NCc1ccccc1 (stereo not given),"inconclusive: 0.251 µM [inhibitor, full curve, poor fit]",
COc1ccc(NC(=O)c2ccccc2CC[N+](=O)[O-])cc1,"inconclusive: 14.1 µM [activator, single point]",
Fc1ccc(-n2nnnc2-c2ccccc2Cl)cc1,,inactive: -26.1% [at 46.1 µM]
Cc1onc(-c2ccccc2Cl)c1C(=O)Nc1ccc(-c2nnc3n2CCCCC3)cc1,,inactive: -2.14%
N#CCc1ccc(OC(=O)c2cccnc2Cl)cc1,"inconclusive: 1.58 µM [activator, partial curve, poor fit]",
CN1C(=S)SC(/[N+]([O-])=C\c2ccc(Cl)cc2)C1(C)C (stereo not given),"inconclusive: 6.31 µM [inhibitor, partial curve, poor fit]",
COc1ccc(S(=O)(=O)NC(C)C)cc1C(=O)N1CCOCC1,"inconclusive: 1.26 µM [inhibitor, single point]",
COc1ccc(N2CCN(Cc3nc(N)nc(Nc4ccccc4OC)n3)CC2)cc1,"inconclusive: 16.4 µM [inhibitor, single point]",
COc1ccccc1C(=O)NC(=S)N1CCCc2ccccc21,,inactive: -2.76%
O=C(CC(C(=O)c1ccccc1)c1ccccc1)c1ccccc1 (stereo not given),"inconclusive: 35.5 µM [inhibitor, single point]",
CCN(CC)S(=O)(=O)c1ccc2c(c1)N(CC(=O)NCCCN1CCN(c3ccccc3F)CC1)C(=O)CO2,,inactive: 2.35% [at 46.1 µM]
COc1ccc(-c2[nH]ncc2CN2CCC(OCc3cccnc3)CC2)c(F)c1,"inconclusive: 3.55 µM [activator, partial curve, poor fit]",
